Measured values as given in publication PMC13170367.

Molecular target: WARP754 (WD_0754) ankyrin repeat region fused to the GAL4 DNA-binding domain (Wolbachia pipientis wMel)
Assay: two-hybrid; GAL4 DB-ankyrin fusions (pDest-DB-cen, yeast Y8930) mated to AD-Drosophila ORF strains (Y8800); primary screen with the pooled DB strains, secondary screen against the separated DB strains; HIS3 reporter, growth on media lacking histidine with 1 mM 3AT, 30°C, 72-96 h

B1: Ptp61F (Drosophila ORFeome activation-domain fusion) (protein, UniProt Q9W0G1 1-548)
chain: MSEQKTSGSGSAAAARLQIEAEYKDKGPQWHRFYKEICETCDREAKEKQFSTSESERHTNRGLNRYRDVNPYDHSRIVLKRGSVDYINANLVQLERAERQYILTQGPLVDTVGHFWLMVWEQKSRAVLMLNKLMEKKQIKCHLYWPNEMGADKALKLPHVKLTVELVRLETYQNFVRRWFKLTDLETQQSREVMQFHYTTWPDFGIPSSPNAFLKFLQQVRDSGCLSRDVGPAVVHCSAGIGRSGTFCLVDCCLVLIDKYGECNVSKVLCELRSYRMGLIQTADQLDFSYQAIIEGIKKLHDPTFLDAEEPLISNDTETHTLDELPPPLPPRVQSLNLPLAPNSGGILSLNMRAAQANGAESIGKELSKDALNNFINQHDMIHDAEVADSRPLPPLPVRAFNDSDSDEDYLLDDDDEDDTDEDEEYETINEHDADPVNGHVPATTQPHADDVNANNEKPAVPVDEQHKANGIDPIPGQLPASPENELKRRKRNEYQASLEQKVNDMKRKQRENEDKQLAAKKRRSLLTYIAAGVVVGVICAYAYTKLG
B1 was tested, and the binding was “binds”.

Results are given in words; binding and its absence hold for the method and conditions named. A result given as binding can be weak or reduced; the word gives no strength. Where a sequence is shown, tags or fusion partners need not be part of it.
